Results reported in PubChem BioAssay AID344 (DTP/NCI, 2004).
The list is a part of this screen's results and no random one: it gathers some chemical classes. Not every dose and run of a compound is shown. T/C is the treated group as % of the vehicle group. For survival time, the PubChem record calls one and a half times the control and up active, and a quarter to a half above the control has no call in these data; cut-offs in other NCI protocols can differ. Some entries show no survivor count and are marked so; the dose need not have been tolerated. Schedules are NCI's codes, taken here to give the interval after Q, in days (D) or hours (H), and the number of doses after X. Some doses were run more than once; their values stand side by side, smallest first. Some schedule codes hold Z or #, which are not explained here.

Test system: mice, LPC-1 plasma cell tumor ip, median survival T/C
Test: NCI In Vivo Anticancer Drug Screen. Data for tumor model Lieberman Plasma Cell No. 1 (LPC-1) (intraperitoneal) in unknown mice
Conditions: T/C endpoint: median survival time, higher T/C = longer survival
Experimental: The antitumor activity of compounds was measured in mice bearing transplantable tumors. Survival or tumor size were measured and the results are expressed as the measurement made in the treated group (T) divided by the measurement made in the vehicle treated control group (C). The tumor model used in this assay is Lieberman Plasma Cell No. 1 (LPC-1) (intraperitoneal) in unknown mice

For `ClCCN(CCCl)c1ccccc1`, the T/C (dose: 25.0 mg/kg/injection, schedule: Q## X015 (oral), vehicle: carboxymethylcellulose (CMC)) was 97 [survivor count not shown] and 428 % of control [survivor count not shown], the T/C (dose: 25.1 mg/kg/injection, schedule: Q07DX004 (sc), vehicle: carboxymethylcellulose (CMC)) was 147 % of control [survivor count not shown] and the T/C (dose: 27.0 mg/kg/injection, schedule: Q01DX005 (oral), vehicle: steroid suspending solution) was 196 % of control [survivor count not shown]. The T/C (dose: 39.0 mg/kg/injection, schedule: Q01DX028 (sc), vehicle: carboxymethylcellulose (CMC)) was 113 [survivor count not shown] and 136 % of control [survivor count not shown], the T/C (dose: 45.0 mg/kg/injection, schedule: Q01DX005 (oral), vehicle: steroid suspending solution) was 173 % of control [survivor count not shown] and the T/C (dose: 50.0 mg/kg/injection, schedule: Q01DX001 (ip), vehicle: carboxymethylcellulose (CMC)) was 529 % of control [survivor count not shown]. The T/C (dose: 50.0 mg/kg/injection, schedule: Q01DX001 (oral), vehicle: carboxymethylcellulose (CMC)) was 428 [survivor count not shown] and 500 % of control [survivor count not shown], the T/C (dose: 50.0 mg/kg/injection, schedule: Q01DX001 (sc), vehicle: carboxymethylcellulose (CMC)) was 134 [survivor count not shown] and 145 % of control [survivor count not shown] and the T/C (dose: 50.0 mg/kg/injection, schedule: Q01DX005 (ip), vehicle: carboxymethylcellulose (CMC)) was 94 % of control [survivor count not shown]. The T/C (dose: 50.0 mg/kg/injection, schedule: Q01DX005 (oral), vehicle: carboxymethylcellulose (CMC)) was 94 [survivor count not shown], 95 [survivor count not shown], 100 [survivor count not shown], 450 % of control [survivor count not shown], the T/C (dose: 50.0 mg/kg/injection, schedule: Q01DX024 (ip), vehicle: carboxymethylcellulose (CMC)) was 100 % of control [survivor count not shown] and the T/C (dose: 50.0 mg/kg/injection, schedule: Q01DX024 (oral), vehicle: carboxymethylcellulose (CMC)) was 95 % of control [survivor count not shown]. The T/C (dose: 50.0 mg/kg/injection, schedule: Q01DX028 (oral), vehicle: carboxymethylcellulose (CMC)) was 97 [survivor count not shown], 122 [survivor count not shown], 172 % of control [survivor count not shown], the T/C (dose: 50.0 mg/kg/injection, schedule: Q01DX028 (sc), vehicle: carboxymethylcellulose (CMC)) was 121 % of control [survivor count not shown] and the T/C (dose: 50.0 mg/kg/injection, schedule: Q02DX014 (sc), vehicle: carboxymethylcellulose (CMC)) was 189 % of control [survivor count not shown]. The T/C (dose: 50.0 mg/kg/injection, schedule: Q03HX064 (oral), vehicle: carboxymethylcellulose (CMC)) was 107 % of control [survivor count not shown], the T/C (dose: 50.0 mg/kg/injection, schedule: Q04DX008 (oral), vehicle: carboxymethylcellulose (CMC)) was 210 % of control [survivor count not shown] and the T/C (dose: 50.0 mg/kg/injection, schedule: Q07DX004 (sc), vehicle: carboxymethylcellulose (CMC)) was 136 % of control [survivor count not shown]. For the same compound, the T/C (dose: 50.0 mg/kg/injection, schedule: Q14DX002 (sc), vehicle: carboxymethylcellulose (CMC)) was 109 % of control [survivor count not shown], the T/C (dose: 50.0 mg/kg/injection, schedule: Q## X008 (oral), vehicle: carboxymethylcellulose (CMC)) was 450 % of control [survivor count not shown] and the T/C (dose: 50.0 mg/kg/injection, schedule: Q## X010 (ip), vehicle: carboxymethylcellulose (CMC)) was 97 % of control [survivor count not shown]. The T/C (dose: 50.0 mg/kg/injection, schedule: Q## X010 (oral), vehicle: carboxymethylcellulose (CMC)) was 91 [survivor count not shown] and 119 % of control [survivor count not shown], the T/C (dose: 50.0 mg/kg/injection, schedule: Q## X015 (oral), vehicle: carboxymethylcellulose (CMC)) was 94 [survivor count not shown] and 109 % of control [survivor count not shown] and the T/C (dose: 50.1 mg/kg/injection, schedule: Q07DX004 (sc), vehicle: carboxymethylcellulose (CMC)) was 152 % of control [survivor count not shown]. The T/C (dose: 65.0 mg/kg/injection, schedule: Q01DX028 (sc), vehicle: carboxymethylcellulose (CMC)) was 106 % of control [survivor count not shown], the T/C (dose: 75.0 mg/kg/injection, schedule: Q01DX001 (sc), vehicle: carboxymethylcellulose (CMC)) was 127 % of control [survivor count not shown] and the T/C (dose: 75.0 mg/kg/injection, schedule: Q01DX005 (oral), vehicle: steroid suspending solution) was 115 % of control [survivor count not shown]. The T/C (dose: 100.0 mg/kg/injection, schedule: Q01DX001 (ip), vehicle: carboxymethylcellulose (CMC)) was 417 % of control [survivor count not shown], the T/C (dose: 100.0 mg/kg/injection, schedule: Q01DX001 (oral), vehicle: carboxymethylcellulose (CMC)) was 122 [survivor count not shown], 211 [survivor count not shown], 266 [survivor count not shown], 314 [survivor count not shown], 500 % of control [survivor count not shown] and the T/C (dose: 100.0 mg/kg/injection, schedule: Q01DX001 (sc), vehicle: carboxymethylcellulose (CMC)) was 186 [survivor count not shown] and 409 % of control [survivor count not shown]. For the same compound, the T/C (dose: 100.0 mg/kg/injection, schedule: Q01DX005 (oral), vehicle: carboxymethylcellulose (CMC)) was 88 [survivor count not shown] and 102 % of control [survivor count not shown], the T/C (dose: 100.0 mg/kg/injection, schedule: Q01DX028 (oral), vehicle: carboxymethylcellulose (CMC)) was 105 % of control [survivor count not shown] and the T/C (dose: 100.0 mg/kg/injection, schedule: Q02DX014 (sc), vehicle: carboxymethylcellulose (CMC)) was 136 % of control [survivor count not shown]. For the same compound, the T/C (dose: 100.0 mg/kg/injection, schedule: Q03HX008 (oral), vehicle: carboxymethylcellulose (CMC)) was 500 % of control [survivor count not shown], the T/C (dose: 100.0 mg/kg/injection, schedule: Q04DX008 (oral), vehicle: carboxymethylcellulose (CMC)) was 111 [survivor count not shown] and 450 % of control [survivor count not shown] and the T/C (dose: 100.0 mg/kg/injection, schedule: Q07DX004 (sc), vehicle: carboxymethylcellulose (CMC)) was 204 % of control [survivor count not shown]. For the same compound, the T/C (dose: 100.0 mg/kg/injection, schedule: Q08DX004 (oral), vehicle: carboxymethylcellulose (CMC)) was 117 % of control [survivor count not shown], the T/C (dose: 100.0 mg/kg/injection, schedule: Q14DX002 (sc), vehicle: carboxymethylcellulose (CMC)) was 100 % of control [survivor count not shown] and the T/C (dose: 100.0 mg/kg/injection, schedule: Q## X010 (oral), vehicle: carboxymethylcellulose (CMC)) was 90 % of control [survivor count not shown]. The T/C (dose: 100.0 mg/kg/injection, schedule: Q## X015 (oral), vehicle: carboxymethylcellulose (CMC)) was 92 % of control [survivor count not shown], the T/C (dose: 100.1 mg/kg/injection, schedule: Q07DX004 (sc), vehicle: carboxymethylcellulose (CMC)) was 110 % of control [survivor count not shown] and the T/C (dose: 108.0 mg/kg/injection, schedule: Q01DX028 (sc), vehicle: carboxymethylcellulose (CMC)) was 93 % of control [survivor count not shown]. For the same compound, the T/C (dose: 150.0 mg/kg/injection, schedule: Q01DX001 (sc), vehicle: carboxymethylcellulose (CMC)) was 127 % of control [survivor count not shown], the T/C (dose: 180.0 mg/kg/injection, schedule: Q01DX028 (sc), vehicle: carboxymethylcellulose (CMC)) was 88 % of control [survivor count not shown] and the T/C (dose: 200.0 mg/kg/injection, schedule: Q01DX001 (oral), vehicle: carboxymethylcellulose (CMC)) was 91 [survivor count not shown], 105 [survivor count not shown], 152 % of control [survivor count not shown]. The T/C (dose: 200.0 mg/kg/injection, schedule: Q01DX001 (sc), vehicle: carboxymethylcellulose (CMC)) was 97 [survivor count not shown] and 327 % of control [survivor count not shown], the T/C (dose: 200.0 mg/kg/injection, schedule: Q01DX005 (oral), vehicle: carboxymethylcellulose (CMC)) was 87 % of control [survivor count not shown] and the T/C (dose: 200.0 mg/kg/injection, schedule: Q03HX008 (oral), vehicle: carboxymethylcellulose (CMC)) was 108 % of control [survivor count not shown]. For the same compound, the T/C (dose: 200.0 mg/kg/injection, schedule: Q04DX008 (oral), vehicle: carboxymethylcellulose (CMC)) was 111 [survivor count not shown] and 210 % of control [survivor count not shown], the T/C (dose: 200.0 mg/kg/injection, schedule: Q07DX004 (sc), vehicle: carboxymethylcellulose (CMC)) was 188 % of control [survivor count not shown] and the T/C (dose: 200.0 mg/kg/injection, schedule: Q08DX004 (oral), vehicle: carboxymethylcellulose (CMC)) was 94 % of control [survivor count not shown]. The T/C (dose: 200.0 mg/kg/injection, schedule: Q14DX002 (sc), vehicle: carboxymethylcellulose (CMC)) was 136 % of control [survivor count not shown], the T/C (dose: 400.0 mg/kg/injection, schedule: Q01DX001 (oral), vehicle: carboxymethylcellulose (CMC)) was 437 % of control [survivor count not shown] and the T/C (dose: 400.0 mg/kg/injection, schedule: Q04DX008 (oral), vehicle: carboxymethylcellulose (CMC)) was 305 % of control [survivor count not shown]. For the same compound, the T/C (dose: 400.0 mg/kg/injection, schedule: Q07DX004 (sc), vehicle: carboxymethylcellulose (CMC)) was 93 % of control [survivor count not shown], the T/C (dose: 400.0 mg/kg/injection, schedule: Q08DX004 (oral), vehicle: carboxymethylcellulose (CMC)) was 88 % of control [survivor count not shown] and the T/C (dose: 400.0 mg/kg/injection, schedule: Q14DX002 (sc), vehicle: carboxymethylcellulose (CMC)) was 177 % of control [survivor count not shown]. For the same compound, the T/C (dose: 800.0 mg/kg/injection, schedule: Q01DX001 (oral), vehicle: carboxymethylcellulose (CMC)) was 190 % of control [survivor count not shown].
